{"source": "PubChem BioAssay AID1347423", "about": "(Functional Genomics Laboratory (NCATS/FGL), 2020)", "note": "Out of some 52,000 sequences screened, about 210 (0.4%) were called active.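 Rule for the calls: active = gene whose silencing raises cell survival under the drug, median off-target-corrected z-score across its silencing RNAs 2 or more; inactive = the rest.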 Some of the results follow.", "data": [{"assay": "Resistance to Poly (ADP-Ribose) Polymerase inhibitor: Gene Identification via Genome-wide siRNA Screen", "conditions": "mouse BRCA2 R2336H ES cells, olaparib, CellTiter-Glo viability; stronger effect = higher value", "method_in_brief": "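Genome-wide siRNA screen (3 siRNAs/gene, 20 nM) in mouse ES cells carrying hypomorphic BRCA2 R2336H; olaparib 500 nM added 48 h post-transfection, CellTiter-Glo viability 72 h later. Normalized to plate-median negative control; MAD z-scores, gene median, seed-adjusted.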", "values": [{"sequence": "GAUGGUUGUAGACUUCUUATT against Olfr1216", "z-score": "inactive: 0.229"}, {"sequence": "GGACGAGAAACCAGUGACATT against 5730466H23Rik", "z-score": "inactive: -2.27"}, {"sequence": "CCAUACCAUCUUUGAAACATT against Rpl21", "z-score": "inactive: -0.687"}, {"sequence": "GGCUAUAGGUUUCUGGGAATT against Fzd6", "z-score": "inactive: 1.17"}, {"sequence": "GCCAGCUGUGGGAUUUCACTT against LOC433873", "z-score": "inactive: -0.553"}, {"sequence": "GGAUUAUGUGAAAACUCUGTT against Sgpl1", "z-score": "inactive: 0.0345"}, {"sequence": "GCUACAUAGCCCUGAUUGCTT against Fkhl18", "z-score": "inactive: 2.59"}, {"sequence": "GGAGUUCAACGAGAUCUGUTT against Hus1b", "z-score": "inactive: -0.357"}, {"sequence": "CCUUAUUGAGACGAAUACGTT against 5330408N05Rik", "z-score": "inactive: -0.542"}, {"sequence": "GGCCGAUCUCUAAACAUAGTT against Sfrs14", "z-score": "inactive: 2.49"}, {"sequence": "GGCUCAGAGUUAUUUUUGCTT against Gtlf3b", "z-score": "inactive: 0.313"}, {"sequence": "CCCUUACGGGUUGACCUUGTT against Gltscr2", "z-score": "inactive: 0.414"}, {"sequence": "GGACUACUCCUGGUAGUGATT against Tscot", "z-score": "inactive: 0.572"}, {"sequence": "CCACAUUGUUUGGUAACCUTT against Olfr1489", "z-score": "inactive: -0.0849"}, {"sequence": "GACCUUCCUGUCUGAGAUCTT against Ssbp4", "z-score": "inactive: -0.23"}, {"sequence": "GCUAAUCCAAUCACUGAUGTT against 4930422G04Rik", "z-score": "inactive: -0.181"}, {"sequence": "CCUGAAUAUAUAGUGCAUGTT against 1500001H12Rik", "z-score": "inactive: 1.87"}, {"sequence": "GCUGCUUAUCUAGACCAGCTT against A930017K11Rik", "z-score": "inactive: -0.615"}, {"sequence": "GGUGGCUUUAGGGAACAUUTT against Dctn3", "z-score": "inactive: -3.2"}, {"sequence": "CCUAUGGUGGUGAGAGGACTT against Fbxl18", "z-score": "inactive: 1.42"}, {"sequence": "GGUAUUAGAAGAUAAUGACTT against Akt3", "z-score": "inactive: 0.39"}, {"sequence": "GCACUUAUUCUAGAGGAGATT against Appbp2", "z-score": "inactive: -0.385"}, {"sequence": "GGACAAUGAACUGAUUACCTT against Ap1s2", "z-score": "inactive: 0.19"}, {"sequence": "GGCUGGAUAUAUGGUGUACTT against Prodh2", "z-score": "inactive: -0.079"}, {"sequence": "GCGGGCCAAGGUAGAAUACTT against D4Ertd478e", "z-score": "inactive: -0.178"}, {"sequence": "GCCCUUAUUCCAGUCAGUUTT against 4933421H10Rik", "z-score": "inactive: -1.91"}, {"sequence": "GGUUUGGUAUCAUGUAUGUTT against Ddx1", "z-score": "inactive: 1.29"}, {"sequence": "GGGCUAUCGCUGCAUUAUCTT against Cbs", "z-score": "inactive: -0.0854"}, {"sequence": "GGACUUCAACCUGCUGUAUTT against Kctd15", "z-score": "inactive: 0.901"}, {"sequence": "GGGAACCAUGGGAAUAUUUTT against MGC29978", "z-score": "inactive: -0.555"}, {"sequence": "GGCAAACAAAUGGUUUGUUTT against D430030K24Rik", "z-score": "active: 2.76"}, {"sequence": "CCUAAUCAGUGUUAAGUACTT against Atrnl", "z-score": "inactive: -1.36"}, {"sequence": "GGACUUUGGUUUUUGUAAGTT against Slitl2", "z-score": "inactive: -0.36"}, {"sequence": "GUGUGGAUAGCUGUAAACGTT against Tcl1b5", "z-score": "inactive: 0.802"}, {"sequence": "GCACGUCUUAAAACAUUUATT against Actr6", "z-score": "inactive: -0.456"}, {"sequence": "GGCUCACGCACUGACUAUUTT against Osgepl1", "z-score": "inactive: 0.54"}, {"sequence": "CCCUAUCAUUACCAAGCUGTT against Hspa8", "z-score": "inactive: -3.62"}, {"sequence": "GGACACUCUACGUAUCUCATT against Tnfrsf1b", "z-score": "inactive: -1.66"}, {"sequence": "GCGAAUUCGAAAGCUAUGATT against Arhgef10", "z-score": "inactive: -2.39"}, {"sequence": "GGCAGACCCUGUGAAUAUATT against Cyr61", "z-score": "inactive: -0.294"}, {"sequence": "GGUAACUCUGCUGGGAUUCTT against Olfr444", "z-score": "inactive: 1.67"}, {"sequence": "CGGUUAGAUGAGCUUGAGATT against Smad2", "z-score": "inactive: 0.479"}, {"sequence": "GGUCAAAAGUUCUGGACAGTT against 9630042H07Rik", "z-score": "inactive: 0.467"}, {"sequence": "GAGAUUGCCAAAGACAAAATT against V1rh18", "z-score": "inactive: -0.223"}, {"sequence": "GGAACGAUUGGUUUUUUUUTT against Ms4a6c", "z-score": "inactive: 0.7"}, {"sequence": "GCUACAAGAUGUGGUCAACTT against Cdc42ep1", "z-score": "inactive: -0.34"}, {"sequence": "GGGAGAGUAAUGUGGACAUTT against Slc37a2", "z-score": "inactive: 3.43"}, {"sequence": "GGCAAGAAAGAAGUGGAACTT against 1700060H10Rik", "z-score": "inactive: 0.461"}, {"sequence": "GGCCAUGGAGAAGUACAACTT against 6720463E02Rik", "z-score": "inactive: 0.913"}, {"sequence": "GCAAGCAUGUGAGAGGGCUTT against Anapc10", "z-score": "inactive: 0.582"}, {"sequence": "GGAUUCUUCUUCUCAGACGTT against Ciz1", "z-score": "inactive: 0.189"}, {"sequence": "CGCAGACAAGAAAUGAAGGTT against 0610008F07Rik", "z-score": "inactive: -0.0362"}, {"sequence": "GGUAAAUUGUCAGAGUUUUTT against Phka1", "z-score": "inactive: 2.05"}, {"sequence": "GGCUGUGAUCAAAGAACAGTT against Bbs4", "z-score": "inactive: -0.697"}, {"sequence": "GGCGCAGCAAAUUCAAUUUTT against Shmt2", "z-score": "inactive: -0.417"}, {"sequence": "GGAUUUUGUUGGAACAGAATT against Gna15", "z-score": "inactive: -0.352"}, {"sequence": "GGUUUUGGCUCGAAGGAAATT against Tead2", "z-score": "inactive: -1"}, {"sequence": "GCAUUUGGGCAACGAGAUGTT against Nr5a1", "z-score": "inactive: 0.915"}, {"sequence": "GGACAUUCGAGGAGAGACCTT against Rdh13", "z-score": "inactive: 0.674"}, {"sequence": "GGAACUGGAAUUUAUGAUATT against Btla", "z-score": "inactive: 1.1"}, {"sequence": "GGGUGUAAUAGUUACAAGATT against Zfp189", "z-score": "inactive: 2.07"}, {"sequence": "GCACCAGUGUUACCACAGUTT against Foxc1", "z-score": "inactive: -1.25"}, {"sequence": "AUAACCUAACUCACAACAATT against Olfr304", "z-score": "inactive: 0.544"}, {"sequence": "GCAACUUUGGCACUAUCCGTT against Rnf123", "z-score": "inactive: 1.3"}, {"sequence": "CCCUUACUAGAAAAAAGACTT against Nap1l2", "z-score": "inactive: 0.282"}, {"sequence": "GGAUGGUGACAUGAAAAUCTT against Ifng", "z-score": "inactive: -0.37"}, {"sequence": "GGGCUUCUAACAAUACUUGTT against Frat2", "z-score": "inactive: 0.586"}]}]}
